The other results are listed elsewhere or left out.

Protein sequences, listed by entry. Tags and fused reporters are not part of them.
UniProt Q0JBA9, entry or part of it: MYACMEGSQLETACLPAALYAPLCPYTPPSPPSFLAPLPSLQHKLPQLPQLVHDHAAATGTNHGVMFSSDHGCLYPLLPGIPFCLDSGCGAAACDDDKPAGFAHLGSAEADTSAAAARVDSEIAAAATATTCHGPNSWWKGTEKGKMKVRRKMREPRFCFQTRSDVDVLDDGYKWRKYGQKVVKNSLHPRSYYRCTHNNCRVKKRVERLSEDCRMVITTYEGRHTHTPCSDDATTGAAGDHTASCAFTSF

This test concerns the target OsWRKY34 (Oryza sativa, UniProt Q0JBA9 1-250). Description: protein-binding microarray (RPBM); PBS, 2% BSA, 51.3 ng/ul salmon testes DNA, 50 uM zinc acetate, 200 nM TF, 25 C, 1 h; high values mean tight binding. As to conditions: protein: recombinant; tags: N-terminal polyhistidine and DsRed monomer fusion (pET32a); label: CyDye5-dUTP incorporated in the synthesized complementary strand; 3' TTTTT single-stranded linker to array surface; dsDNA, one strand shown. The essentials: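 Binding signal here means per-feature fluorescence intensity in arbitrary units. The values were read on an Axon 4000B scanner after a custom Agilent array, double-stranded by primer extension with Cy5-dUTP, was incubated with 200 nM protein at 25 °C for 1 h in PBS with 2% BSA, salmon testes DNA and 50 µM zinc acetate, then washed. The proteins were transcription factors with an N-terminal polyhistidine tag and DsRed, expressed in E. coli BL21-CodonPlus and purified on Ni–NTA.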
For the sequence “CCCCATCCGTCGCCGTGCTGCACTCCTCTGGCAGAAGAGCCGGAGTCACCTAGTGCAG”, the binding signal is 8050 fluorescence intensity (a.u.).
Next, “CCCCGCCGATCCTCGCCTGTCGACGACGTCCCGGCGCCGCCGGAGTCACCTAGTGCAG”: 10300 fluorescence intensity (a.u.); “TCACTTTACTCTCTCTCTCTCTCTCTCTCTCTCTCTCTCTCGGAGTCACCTAGTGCAG”: 14400 fluorescence intensity (a.u.).
With “CCTTTTCAGCTTGTCTGTTTATTTGGCTCTTCTGTTTTTTCGGAGTCACCTAGTGCAG”, the binding signal is 9630 fluorescence intensity (a.u.).
The same measure for “AGTACTACCGCTCCTCGTATCAGGTTATAAAACGTTTTGACGGAGTCACCTAGTGCAG”: 8490 fluorescence intensity (a.u.).
Next, “GGTGGAGTGGCGTGGCGAGGTGAGGAGGTGGCTGATCTCTCGGAGTCACCTAGTGCAG”: 8440 fluorescence intensity (a.u.); “TTGACGCCGTTGACTTTTCTAAACATATTTGACTATTCGTCGGAGTCACCTAGTGCAG”: 22300 fluorescence intensity (a.u.).
Next, “CCCCGCCTTTCTCGAGCTGCGGGTTGGGTTTGGCCACCCACGGAGTCACCTAGTGCAG”: 8660 fluorescence intensity (a.u.); “TCGTCTCTCATCTCTTCTATATGTGATTATAGCTGATTTACGGAGTCACCTAGTGCAG”: 8980 fluorescence intensity (a.u.); “TGTATTTCGCCGGTTGCAATTTCGTCATCACTGCGGTTAGCGGAGTCACCTAGTGCAG”: 11000 fluorescence intensity (a.u.).
Take “CTGGGTGGCTCATATTATTCTCAACGGGCTGTCGCTTTAACGGAGTCACCTAGTGCAG”: the binding signal is 8190 fluorescence intensity (a.u.).
As for “CGTGTCCGAAAACCCCTTCCGACATCCGGTCAAACGTTCGCGGAGTCACCTAGTGCAG”, the binding signal is 8790 fluorescence intensity (a.u.).
In the case of “CATTGATTTACTATTTCTTAACAAATCCCGGCCCATTTCTCGGAGTCACCTAGTGCAG”, the binding signal is 8680 fluorescence intensity (a.u.).
Turning to “CCCCATCACCTCCCTCACCGCGGCCTCCACCTCGCGCCGCCGGAGTCACCTAGTGCAG”, the binding signal is 8370 fluorescence intensity (a.u.).
The same measure for “TATGTACGCCTCAAACCGACATAAAGCATCCGTGTTGACCCGGAGTCACCTAGTGCAG”: 8340 fluorescence intensity (a.u.).
On to “CCGCATATATTCCCGTCGCCACCACGGCGCAACTGCGCGACGGAGTCACCTAGTGCAG”, for which the binding signal is 9100 fluorescence intensity (a.u.).
With “GCCATTCCAGTCATTGGCATTGTTGTTTCCTGTCCACTGACGGAGTCACCTAGTGCAG”, the binding signal is 10500 fluorescence intensity (a.u.).
On to “CGCTCGCACGGCCTCACCCGACCACCGCCACCGCACAAATCGGAGTCACCTAGTGCAG”, for which the binding signal was 13600 fluorescence intensity (a.u.).
On to “CTTCATCACCGTCGCCTCACAACTACTACACCGACGCATCCGGAGTCACCTAGTGCAG”, for which the binding signal was 9250 fluorescence intensity (a.u.).
For the sequence “GGCCGCGTGCGTGTGTCCAAACCTTCTCCACGCATTTCCTCGGAGTCACCTAGTGCAG”, the binding signal is 9290 fluorescence intensity (a.u.).
The same measure for “GCTGCTCCTAACCCCTTACACAGCACACTAATCATTTGCTCGGAGTCACCTAGTGCAG”: 9060 fluorescence intensity (a.u.).
Next, “ATGCCGCGGTTTCTTCTCTTGGGCGTGTATTGTTGCACGACGGAGTCACCTAGTGCAG”: 8710 fluorescence intensity (a.u.); “CAGTCCTAGTATATGCTGTTTGCGCAACTTGCCAACTTCTCGGAGTCACCTAGTGCAG”: 9380 fluorescence intensity (a.u.).
Next, “TTCTTCATTTCTCCTCCTGTCTCTTTCATCCGCTTCCTTCCGGAGTCACCTAGTGCAG”: 8440 fluorescence intensity (a.u.).
On to “AGTTACCATCTGCTGATGACATCCAAAAACTGCCATCATTCGGAGTCACCTAGTGCAG”, for which the binding signal was 9440 fluorescence intensity (a.u.).
Next, “AGTTTTTTCCTTTTAATCTCCGACTTCACCGGGTTTTTTCCGGAGTCACCTAGTGCAG”: 8260 fluorescence intensity (a.u.).
The same measure for “TTATCTATTAGTCCATTGTACATGCCCTCGTCTCTCTATCCGGAGTCACCTAGTGCAG”: 11200 fluorescence intensity (a.u.).
With “ATAATATGTGTCTTGGAGTCCGTGCTATAGCTGGCTACAACGGAGTCACCTAGTGCAG”, the binding signal is 8810 fluorescence intensity (a.u.).
Next, “ATCTTGTTACATGATTGTTAGTCCTCATATTTTGTTTTTGCGGAGTCACCTAGTGCAG”: 8110 fluorescence intensity (a.u.); “AACGGTAACATCTTAATCCAACGGCTACTCTTCTGCGTGTCGGAGTCACCTAGTGCAG”: 10100 fluorescence intensity (a.u.); “ACTTACCCTTTACTTTCACCCTTGGCTGTCATTCAGGTACCGGAGTCACCTAGTGCAG”: 9400 fluorescence intensity (a.u.).
Next, “GGGCAAGTTCGCGTCAAAATCGGCCCGTTGTTTTCTTTTTCGGAGTCACCTAGTGCAG”: 9550 fluorescence intensity (a.u.); “TTGTGCCTCGCTTGCTCATCTTTTTTTGGGGATTTATCTTCGGAGTCACCTAGTGCAG”: 8670 fluorescence intensity (a.u.); “CACCTGAAGCCGGCCATTCCTTCCGCGTTTCCGTCGACGTCGGAGTCACCTAGTGCAG”: 9180 fluorescence intensity (a.u.).
In the case of “TCTATTGCGTTCCGTTCCGTGAGCTATTTCCCCAAATCAACGGAGTCACCTAGTGCAG”, the binding signal is 8740 fluorescence intensity (a.u.).
As to “GCTGCCTCGTCCATCTGTCGTCCAACGCGCCTCTTCACTTCGGAGTCACCTAGTGCAG”, the binding signal is 11500 fluorescence intensity (a.u.).
With “CTATTTTATAAAATCTTTGTTTATGCATACCAGCTAAATTCGGAGTCACCTAGTGCAG”, the binding signal was 8800 fluorescence intensity (a.u.).
On to “ACAGCCTTATCTCTTTCTCCTGTCTCTTATCTCTTTCTTCCGGAGTCACCTAGTGCAG”, for which the binding signal was 12600 fluorescence intensity (a.u.).
As to “AAAATTTTTTTAACGTATACGGATGCACATTTGAAGTATTCGGAGTCACCTAGTGCAG”, the binding signal is 8420 fluorescence intensity (a.u.).
Next, “AGTTTGTGTTGTAGCTGTAGCCAGTTGCTCTTCTCTCTTCCGGAGTCACCTAGTGCAG”: 12000 fluorescence intensity (a.u.); “CACTGTATATTTTTCTATCGCAGTCATGTGATATACCCTTCGGAGTCACCTAGTGCAG”: 10400 fluorescence intensity (a.u.).
Next, “GACTTTTGCTTAACTTCTACGATTTACCATCGCTGTCCGGCGGAGTCACCTAGTGCAG”: 8190 fluorescence intensity (a.u.).

The record behind these values is PMC7819943, “Rice protein-binding microarrays: a tool to detect cis-acting elements near promoter regions in rice”.
